{"sequences": {"note": "By UniProt entry, the sequences of proteins in these tests, tags left out. Residues count along the entry.", "UniProt P60568, residues 21-153": "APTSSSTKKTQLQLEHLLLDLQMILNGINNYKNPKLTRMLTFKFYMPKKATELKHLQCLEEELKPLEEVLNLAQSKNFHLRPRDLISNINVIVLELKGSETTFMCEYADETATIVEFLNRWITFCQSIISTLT"}, "source": "patent US20220227829A1", "molecular_target": "CD25 protein (from Example 2)", "experiment": "ELISA on coated CD25", "note": "Results are given in words; binding and its absence hold for the method and conditions named. Some results given as binding are weak or reduced against the parent protein; the word gives no strength.", "data": [{"substance": "rhIL-2, recombinant human interleukin-2 for injection (Quanqi) (from UniProt P60568 21-153) (ligand)", "values": [{"measurement": "binding", "result": "binds"}]}]}
